# Data from PubChem BioAssay AID1487 (National Center for Advancing Translational Sciences (NCATS), 2009).
# The whole screen tested about 200,000 compounds, of which about 25 (0.01%) were called active. The shares of active, inactive and inconclusive entries below differ from those in the screen. Calls come from the whole dose curve; as a rule, active = well fitted inhibition curve with a large enough effect in the signal ratio, with a control signal flat (not every such curve was filed as active); inconclusive = small, poorly fitted or top-dose-only effect, or effect the other way, or a change in a side signal; inactive = flat fitted curve, though single readings scatter; the % refers to the signal ratio. Potencies of inconclusive entries are doubtful fits and often do not repeat.
# Test: qHTS Assay for Modulators of Lamin A Splicing
# Conditions: HeLa LMNA splicing GFP/RFP minigene ratio, 48 h; ratio change, negative = inhibition: at 46.1 µM (top of the series) unless noted
# Outline: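 Read-out is the ratio of GFP to DsRed2 object intensity, acquired by 488 nm laser-scanning cytometry on HeLa lamin A-EGFP minigene reporter cells. Compound incubation 48 hrs at 37 °C in Opti-MEM with 2% FBS; DMSO 0.5% final.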
# % is set by controls: 0 for no effect and ±100 for the full control effect; potency is the fitted concentration of half-maximal effect.
Structure (SMILES),Potency,"ratio change, negative = inhibition"
O=C(c1ccc(Cl)cc1)c1ccc(OCC(O)CN2CCOCC2)cc1 (stereo not drawn),"inconclusive: 20 µM [falling, single point]",–
O=C1c2ccccc2C(=O)C1Cc1cccc2ccccc12,–,inactive: -6.79%
Cn1cnc2c1c(=O)[nH]c(=O)n2C,–,inconclusive: -7.44%
N#C/C(=C\c1c[nH]c2ccccc12)C(=O)c1ccc(O)c(O)c1,"inconclusive: 22.4 µM [inhibitor, partial curve, poor fit]",–
CCCOc1ncnc2c1sc1nc3c(cc12)COC(C)(C)C3,–,inactive: 0.907% [at 46 µM]
Cc1ccccc1-c1nc(S(=O)(=O)c2ccc(Br)cc2)c(NCc2cccnc2)o1,–,inconclusive: 9.47%
CCn1cc(-c2ccnc3cc(C(=O)O)nn23)c(C)n1,–,inconclusive: 8.7% [at 9.22 µM]
CC(=O)N1CCN(S(=O)(=O)c2cccc(C(=O)Nc3ccccc3N3CCOCC3)c2)CC1,–,inconclusive: -4.04% [at 46 µM]
O=C(Nc1ccc(Cl)c(S(=O)(=O)N2CCOCC2)c1)c1ccc(OCC2CCCO2)cc1 (stereo not drawn),–,inconclusive: 3.71% [at 46 µM]
O=C(NC1CCCCC1)N1CCCC(c2nc(-c3ccc(S(=O)(=O)N4CCCC4)cc3)no2)C1 (stereo not drawn),–,inactive: 3.78%
Cc1ccc(C2CC(=O)Nc3c2ccc2ccccc32)cc1[N+](=O)[O-] (stereo not drawn),"inconclusive: 35.5 µM [fluorescent, single point]",–
COc1ccc(C(=O)NCc2nnc(SCC(=O)N3CCC(C)CC3)o2)cc1,–,inactive: -4.56% [at 46 µM]
COc1ccc(Cl)cc1C(=O)NCC(c1ccc(N(C)C)cc1)N1CCOCC1 (stereo not drawn),–,inconclusive: -35.4% [at 46 µM]
Cc1cc(C)cc(Oc2nc(-c3ccccc3)cc(C)c2S(C)(=O)=O)c1,–,inconclusive: -1.16%
O=[N+]([O-])c1cccc2c(Cl)ccnc12,–,inconclusive: 5.68% [at 46 µM]
COc1ccc(S(=O)(=O)N2CCC(C(=O)N3CCc4ccccc4C3)CC2)cc1OC,–,inconclusive: 8.71%
COCCn1c(SCC(=O)Nc2sccc2C(N)=O)nc2cc(Cl)ccc2c1=O,"inconclusive: 11.2 µM [fluorescent, single point]",–
Cc1oc2c(O)c(O)ccc2c(=O)c1-c1ccccc1,–,inconclusive: -29.4% [at 46 µM]
COc1cc(OC)cc(C(=O)OCc2ccc([N+](=O)[O-])cc2)c1,–,inconclusive: 25.5% [at 46 µM]
CCOc1ccccc1Nc1nnc(SCC(=O)Nc2nc(-c3ccc(OC)cc3)cs2)s1,–,inconclusive: 8.35% [at 46 µM]
CCOc1ccc(S(=O)(=O)N(CC(=O)Nc2cc(C)on2)Cc2ccccc2Cl)cc1,"inconclusive: 28.2 µM [fluorescent, single point]",–

Structure (SMILES),Potency,"ratio change, negative = inhibition"
S=C(Nc1ccc(Oc2ccc(NC(=S)NC3CCCCC3)cc2)cc1)NC1CCCCC1,–,inconclusive: -54.7%
Cn1c(-c2ccc(-c3ccccc3)cc2)c[nH]c1=S,–,inactive: 0.574%
Cn1c(NC(=O)CCc2ccccc2)cc(=O)n(C)c1=O,–,inactive: 8.09%
FC(F)Sc1ccc(-n2cc(-c3ccccc3)[n+]3c2CCC3)cc1,"inconclusive: 35.5 µM [falling, single point]",–
CCOC(=O)c1c(-c2ccccc2)csc1/N=C/C1C(=O)CCCC1=O,–,inconclusive: 6.11%
COc1ccc(C2=C(Nc3ccc(F)cc3)c3ccccc3C2=O)cc1,"inconclusive: 25.1 µM [inhibitor, single point]",–
COCc1ccc(C(=O)NC(C)c2cnn(-c3ccccc3C)c2C)o1 (stereo not drawn),–,inconclusive: 15.7% [at 46 µM]
CS(=O)(=O)N1CCN(c2ccc(NC(=S)NC(=O)c3cccs3)cc2)CC1,–,inconclusive: -20.2% [at 46 µM]
CCOc1ccc(CCNC(=O)c2ccc(CS(=O)(=O)Cc3ccccc3Cl)o2)cc1OCC,–,inconclusive: -26.3% [at 46 µM]
CCOc1ccc(OCC)c(C2C(C#N)=C(N)N(c3cccnc3)C3=C2C(=O)CC(C)(C)C3)c1 (stereo not drawn),–,inactive: -4.01%
C=C(C)CC1(NC(C)c2ccccc2)CCCCC1 (stereo not drawn),–,inactive: -1.3%
O=C(COc1ccccc1[N+](=O)[O-])NNC(=O)Nc1cccc2ccccc12,–,inconclusive: 41.4% [at 46 µM]
Cc1cc(C(F)F)nn1CC(=O)Nc1cc([N+](=O)[O-])ccc1F,–,inconclusive: 1.69%
CC(NC(=O)CCn1c(=O)c2cccn2c2ccc(F)cc21)c1ccccc1 (stereo not drawn),–,inconclusive: 21% [at 46 µM]
COc1ccc(/C=C(\C#N)C(=O)NCC2CCCO2)cc1OC (stereo not drawn),–,inactive: 0.948%
O=C(O)c1cccc(Cn2cc(Cl)cn2)c1,–,inactive: 3.55%
O=C(Cc1cccs1)NC1CC(=O)N(c2ccccc2)C1 (stereo not drawn),–,inconclusive: 14.1% [at 46 µM]
O=C(COc1c(CO)cc(Br)cc1CO)NC1CCCc2ccccc21 (stereo not drawn),–,inconclusive: -33.4% [at 46 µM]
O=C(Cc1ccccc1F)Nc1ccc(SC(F)F)cc1,"inconclusive: 35.5 µM [fluorescent, single point]",–
CCOC(=O)c1cc(-c2ccc(F)cc2)n(CC(=O)NC2CCCCC2)c1C,–,inconclusive: 15.7% [at 46 µM]
O=C(NCCCN1CCOCC1)c1ccc2c(c1)N(Cc1ccccc1)C(=O)c1ccccc1S2,–,inconclusive: -32.9% [at 46 µM]

Structure (SMILES),Potency,"ratio change, negative = inhibition"
Cc1ccccc1C(O)c1ccccn1 (stereo not drawn),–,inconclusive: -0.0586%
CCCN1Cc2cccc(C(=O)Nc3ccc4c(c3)OCO4)c2C1=O,–,inactive: 9.23%
CC(NC(=O)NC1CCCCC1)C(c1cccs1)N1CCN(c2ccccc2)CC1 (stereo not drawn),"inconclusive: 35.5 µM [fluorescent, single point]",–
CCOc1ccccc1CNC(=O)CN1C(=O)CCCc2ccccc21,–,inconclusive: -2.14% [at 46 µM]
CNC(=O)COC(=O)c1cc(SC)ccc1Cl,–,inactive: -0.0655% [at 46 µM]
C[C@]12C=CC(=O)C=C1CCC1C2C(O)C[C@]2(C)C1CC[C@]2(O)C(=O)CO (stereo partly drawn),–,inconclusive: 8.48%
COc1ccc(CNC(=O)CCCCCn2c(SCC#N)nc3cc4c(cc3c2=O)OCO4)cc1,"inconclusive: 7.94 µM [activator, partial curve, poor fit]",–
CC(=O)c1ccccc1OCCOCCOCCOc1ccccc1C(C)=O,–,inconclusive: 41.3% [at 46 µM]
CC(=O)c1ccccc1Oc1nc(CN2CCOCC2)nc2scc(-c3cccs3)c12,–,inactive: 20.9%
Cc1ccnc(NC(=O)CCC(=O)N(CC(=O)NCc2ccccc2)Cc2ccco2)c1,–,inconclusive: -14.8% [at 46 µM]
COC(=O)C1=C(C(=O)OC)SC(=C2C(=S)C(C)(C)N(C(=O)C3CC3)c3ccccc32)S1,–,inconclusive: -43.1%
O=C(O)Cc1c[nH]c2ccc(O)cc12,–,inconclusive: -3.57%
Cc1cc(=O)n(Cc2cccc(Br)c2)c2c1c(C)nn2-c1ccccc1,–,inactive: 2.38% [at 46 µM]
c1ccc(Nc2ccccn2)nc1,–,inactive: 5.33% [at 46 µM]
Cc1nnc(NC(=O)C2c3ccccc3Oc3ccccc32)s1,"inconclusive: 11.2 µM [falling, partial curve]",–
COC(=O)COc1cccc(NS(=O)(=O)c2ccc(NC(C)=O)cc2)c1,–,inactive: -3.06%
C=CCOC(=O)/C(=C/c1ccco1)NC(=O)/C=C/c1ccccc1,–,inactive: 2.42%
Cc1cc(C)cc(NC(=O)c2sc3nc(-c4ccccc4)cn3c2C)c1,–,inactive: -11% [at 46 µM]
CC1(C)Cc2c(c(-c3ccccc3)[nH]c(=O)c2C#N)CS1,–,inactive: 0.0448%
Cc1c(CCO)sc[n+]1CC(=O)OCCC12CC3CC(CC(C3)C1)C2,–,inactive: 10.1%
NC(=O)c1c(NC(=O)c2ccncc2)sc2c1CCCC2,–,inconclusive: 23.5% [at 46 µM]

# Exported as tab-separated lines: part of the list above.
Structure (SMILES)	Potency	ratio change, negative = inhibition
Cc1ccc(C2CC(=O)Nc3c2ccc2ccccc32)cc1[N+](=O)[O-] (stereo not drawn)	inconclusive: 35.5 µM [fluorescent, single point]	–
COc1ccc(C(=O)NCc2nnc(SCC(=O)N3CCC(C)CC3)o2)cc1	–	inactive: -4.56% [at 46 µM]
CNC(=O)COC(=O)c1cc(SC)ccc1Cl	–	inactive: -0.0655% [at 46 µM]

# Going on with the list:

Structure (SMILES),Potency,"ratio change, negative = inhibition"
Brc1ccccc1CN1CCC(N2CCCCC2)CC1,–,inconclusive: -5.72%
CCOC(=O)C1CCN(C(=O)CSc2n[nH]c(-c3ccccc3Cl)n2)CC1,–,inactive: 6.12% [at 46 µM]
c1csc(-c2nnc(N3CCCCCC3)c3ccccc23)c1,–,inactive: -10.9%
CCCc1cc(=O)[nH]c(SCc2cccnc2)n1,–,inactive: -14.8%
O=C(CSc1ccc2ccccc2n1)NCCC1=CCCCC1,"inconclusive: 35.5 µM [falling, single point]",–
CCN(CC)S(=O)(=O)c1ccc(OCC(=O)NCc2ccccc2)cc1,–,inconclusive: 5.29%
CC(C)Cn1c(-c2csc3c2CCCC3)n[nH]c1=S,–,inactive: 7.15%
CCCCC1=CC2=C(c3ccco3)C(=O)C(C)(OC(=O)c3ccc(OC)cc3)C(=O)C2=CN1c1ccccc1 (stereo not drawn),–,inconclusive: 118% [at 9.22 µM]
O=C(CC(Nc1ccc(F)cc1)C(=O)O)c1ccccc1 (stereo not drawn),–,inactive: 6.63%
COc1ccccc1N1CCN(C(=O)c2nc(-c3ccc(C)cc3)n3c2CCCCC3)CC1,–,inconclusive: -19% [at 46 µM]
CC(C)Cc1nc2oc3c(NCCCN4CCOCC4)ncnc3c2c2c1CCC2,–,inconclusive: 1.6%
CCOC(=O)c1c(-c2ccc(F)cc2)csc1NC(=O)CN1C(=O)NC2(CCCCC2C)C1=O (stereo not drawn),–,inconclusive: -11.1%
CN(C)CCCNCCCNC(=O)/C(=N\O)c1ccccn1,–,inactive: -9.48%
CC(C)c1nc2ccc(C(=O)NCc3ccc(F)cc3)cc2o1,–,inconclusive: -9.94% [at 46 µM]
CCNc1nc(C)nc2c1oc1ccccc12,–,inconclusive: 14%
Cc1oc2ncnc(N3CCCCC3)c2c1C(=O)Nc1cccc(Cl)c1C,–,inactive: -2.77% [at 46 µM]
Cc1cccc(C)c1NC(=O)c1c(C)oc2c1C1=NCCN1C=N2,–,inconclusive: -13.4% [at 46 µM]
COc1ccc(CC(=O)Nc2ccc(-c3nc4ccccc4s3)cc2Cl)cc1OC,–,inactive: 7.18% [at 46 µM]
CCCc1cc(=O)[nH]c(SCC(=O)NCCCC(=O)OCC)n1,–,inconclusive: -10.8%
Cc1cc(N/N=C/c2ccc(O)cc2O)nc(-n2nc(C)cc2C)n1,"inconclusive: 8.91 µM [falling, partial curve]",–

# One compound at a time, from the list above. Values in the order: Potency | ratio change, negative = inhibition
# CCN(CC)S(=O)(=O)c1ccc(OCC(=O)NCc2ccccc2)cc1 reads – | inconclusive: 5.29%
# Brc1ccccc1CN1CCC(N2CCCCC2)CC1 reads – | inconclusive: -5.72%
